The full ranking holds about 33,000 sequences; the median of “E-score (-0.5 to 0.5)” is about -0.0034, and the highest 2% start at about 0.25. Some of the results follow.
target: T1, Yap3 (UniProt P38749); experiment: PBM E-score (8-mer binding enrichment) (E-score (-0.5 to 0.5)); higher = stronger / more preferred TF binding; details: protein concentration: 100 nM; construct: GST-full length
T1 sequence: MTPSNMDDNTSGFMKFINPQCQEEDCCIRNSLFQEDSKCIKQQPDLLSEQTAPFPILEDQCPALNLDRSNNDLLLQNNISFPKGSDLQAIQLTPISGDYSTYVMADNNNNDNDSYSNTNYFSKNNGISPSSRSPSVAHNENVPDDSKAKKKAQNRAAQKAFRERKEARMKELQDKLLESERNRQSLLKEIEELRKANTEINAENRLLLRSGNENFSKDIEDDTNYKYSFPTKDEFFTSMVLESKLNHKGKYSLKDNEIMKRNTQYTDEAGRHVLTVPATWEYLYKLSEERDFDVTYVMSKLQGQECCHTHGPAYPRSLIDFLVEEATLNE
Method in brief: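 The E-score, a modified Wilcoxon-Mann-Whitney statistic, was computed by the Universal PBM Analysis Suite for every ungapped eight-base word pooled with its reverse complement. Scans behind it were normalised with masliner after bound GST-tagged yeast transcription factors were detected with fluorescent anti-GST. The proteins, at about 100-200 nM, had been applied to universal all-10-mer Agilent arrays made double-stranded by primer extension.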

Sequence	PBM E-score
AAACTTGA	0.0809
AGTAGCAT	-0.0143
ACGCACTC	-0.0814
AGTTGCAA	0.0821
AAGACTCA	-0.162
GGCGTAAC	-0.0835
AAATACTT	0.0794
ATGATACA	0.233
ACATACGC	0.0285
GGTAGATA	0.114
CGGTTATC	0.0497
ATAAACAG	0.18
TGTAAGAA	0.167
CAATCACG	0.0762
TAACTAGA	0.225
AATAATGG	0.329
AGAGACCA	-0.0356
AACGACTA	0.0584
CTTAGGTA	0.118
TCCGGCAA	-0.0144
CGAGGTAA	-0.0145
ACTGAATA	0.103
AACCCGCT	-0.0991
AAACCATG	0.0294
TGACGTCA	0.331

Sequence	PBM E-score
GTCCTAGA	-0.228
GAACACGC	0.0758
CTGCTGAC	0.136
CTAATCTA	0.00845
GAACTACC	0.0671
AGAACAGC	0.0757
ATCATAGC	0.0624
AAGTGCCC	-0.072
CTATGGGA	-0.103
GACGATCC	-0.0215
ACGCGGCG	-0.0321
ACCTTTCA	0.0516
GCCCAACC	0.0559
CAGACACG	-0.12
ATATTGTC	0.226
CTCCAATC	0.119
AAGAGCCT	-0.0508
ATGCTAAG	0.0349
AACGTGTG	0.0407
GATACAGC	0.0439
CTGATTGC	0.0633
GTCAGATA	0.0654
ACGCTCAC	-0.0296
AAATCGGG	0.0709
ATATCTAA	0.115

Sequence	PBM E-score
CTCGGAGA	-0.0278
TCTTAAGA	0.0284
ACCCGCCT	-0.291
ATTAGCGC	0.11
AACAGTTG	-0.0544
AAGGACTC	-0.0811
AAACGTAG	0.102
ACGGCATA	0.0715
CTCCAGTC	-0.175
AGTGAGGG	-0.219
CGGAAACG	0.0552
ACCTTTTG	-0.00164
TCGAGCCA	0.0206
ATCCACTC	0.0328
ATCATTCC	0.1
CCTCAACG	-0.243
GACCCCCA	-0.423
CTACAAAC	0.11
GAATCCGA	-0.0133
GATGTGGA	0.092
AGGTGAAC	-0.0219
ACCTAACT	0.0547
CTTCGTAC	0.067
GGCTATAC	-0.125
AACTTTTG	0.113

Sequence	PBM E-score
AATCTCGC	0.0766
AAGCACAA	0.198
CAGCATTA	0.0879
CTAGCCAG	-0.0936
AAGGAGAG	-0.28
GCAATTAA	0.112
CTATACTA	0.16
AGACCAAA	-0.0495
ATGTTCGG	0.118
ACGTGATC	0.157
CAAACATA	0.0864
ACAAATAA	0.225
CGCTGGGC	-0.257
CAGTCGGG	-0.115
TACGCACA	0.118
CCACTCGC	0.0481
ATGCAGGG	-0.159
AAAGCTAA	0.0273
GGACCTGA	-0.175
CGATCGCA	0.175
AGGTCCGC	-0.239
TCTCAGCA	0.0139
ACAAATTG	0.173
CCTGGTTA	-0.0505
ATATCCGG	0.0452

Sequence	PBM E-score
TGGCCACA	-0.0477
GCTATCAC	0.179
GTACGCGA	0.0761
CAAAGACA	0.138
ACGTCCTA	0.00661
GAACGCAC	0.0357
AGGATGCA	-0.0466
AGTAATCA	0.117
ATCCGTTA	0.284
GAACCGGA	0.0493
TGGGCGAA	-0.0318
CGACCGAC	0.0322
TATTCGGA	0.194
AGGGGGAA	-0.111
AATCTAGT	0.142
AACTACAG	0.0316
GAGCAAGC	-0.15
TCAGAAAA	-0.0671
CCCCTCTA	-0.286
CCTGCTGA	0.132
AAGGTCAC	-0.0209
ACTTCTTC	0.0436
CTCTGCCC	-0.0627
AAGGACTA	-0.136
GCCAGGGC	-0.324

Exported in CSV form: part of the list above.
Sequence,PBM E-score
AGTAATCA,0.117
ATCCGTTA,0.284

Next entries

Sequence	PBM E-score
AGCGGGCC	-0.101
CGCCCTCC	-0.289
TACGGTGA	0.164
CACCAGGA	-0.0124
AAGGTTGA	0.193
CCGAACAA	0.18
CGTTCACA	0.126
CTCAGCAG	-0.0565
ATTCAGGG	-0.018
CGCATTGA	0.125
CTCTGAAC	-0.0851
CGGATGAC	0.0307
GAGTTTAA	0.217
GACCCTAA	-0.136
CGTATTAC	0.231
CGCTTGAC	-0.028
AAAAGACT	-0.114
AATGTCAT	0.0551
GACGAGAC	0.0175
CGCTCTAA	0.00238
CGCGACTA	0.0901
TATGTTAA	0.232
GGCCCTGA	-0.14
GTGACGGA	-0.0488
CAGCCGGG	-0.247

Sequence	PBM E-score
ATACAGCA	0.0699
TACTTGGA	0.111
CAAGGAAA	0.103
ATCGGACG	-0.0989
GGTGAAGA	-0.0219
ACTAGCGG	-0.124
GTTTTCCA	0.213
ATGCTCCC	-0.137
TAGAGTCA	-0.25
ACCTTTCC	0.0396
ATTAGTTC	0.118
CCCACTCG	-0.298
CGAGGGGC	-0.341
CATATATG	0.126
CGCAGGAC	-0.149
CGCCAATC	0.0304
ACCGTCAG	-0.111
CAAACTCA	0.133
TAGGGCCA	-0.122
AAAAGTTG	0.0288
TAGGCTGA	0.0209
AGACTTAT	-0.0527

A few values from the list:
Entry of CAGCCGGG under PBM E-score: -0.247
Entry of ACCCGCCT under PBM E-score: -0.291
Entry of TCTTAAGA under PBM E-score: 0.0284
